Measured values from PMC10183829, “Shuffled ATG8 interacting motifs form an ancestral bridge between UFMylation and autophagy” (The EMBO Journal, 2023).

Sequences of proteins named here, by UniProt entry; tags and fusion partners are left off. A change or cut given only in a name is not applied to a line headed by its entry.
UniProt Q9FG23: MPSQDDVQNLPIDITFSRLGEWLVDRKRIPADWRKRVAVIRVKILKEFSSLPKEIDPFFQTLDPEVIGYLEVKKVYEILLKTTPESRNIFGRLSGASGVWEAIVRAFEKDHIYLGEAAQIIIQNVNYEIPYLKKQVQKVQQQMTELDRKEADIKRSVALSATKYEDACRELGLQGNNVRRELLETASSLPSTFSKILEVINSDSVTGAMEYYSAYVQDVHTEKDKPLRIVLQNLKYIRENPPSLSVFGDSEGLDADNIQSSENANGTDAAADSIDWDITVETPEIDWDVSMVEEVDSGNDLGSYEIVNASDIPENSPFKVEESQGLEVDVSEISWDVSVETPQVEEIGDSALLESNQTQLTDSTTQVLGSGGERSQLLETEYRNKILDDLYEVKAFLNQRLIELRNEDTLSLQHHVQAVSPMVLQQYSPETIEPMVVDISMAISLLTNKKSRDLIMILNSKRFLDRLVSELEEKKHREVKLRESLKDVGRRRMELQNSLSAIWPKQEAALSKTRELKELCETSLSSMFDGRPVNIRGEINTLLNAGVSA

Experiments:
[1] = target: T1, ATG8A (purified) (Arabidopsis thaliana) (UniProt Q8LEM4); experiment: NMR titration; unlabeled protein or peptide (50-300 μM) added to 100 μM 15N-labeled protein; 1H-15N HSQC, 25°C, 50 mM sodium phosphate pH 7.0, 100 mM NaCl, 10% D2O; both purified
T1 sequence: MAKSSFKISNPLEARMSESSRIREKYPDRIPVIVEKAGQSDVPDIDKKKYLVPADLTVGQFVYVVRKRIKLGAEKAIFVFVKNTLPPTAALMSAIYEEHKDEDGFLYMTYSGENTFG

[2] = target: T1, ATG8A (purified) (Arabidopsis thaliana); experiment: NMR titration; both purified
[3] = target: T2, GST-ATG8A (Arabidopsis thaliana) (UniProt Q8LEM4); experiment: pull-down; GST-tagged bait on glutathione magnetic agarose beads; E. coli lysates containing the recombinant proteins mixed, 1 h at 4°C; wash buffer 100 mM sodium phosphate pH 7.2, 300 mM NaCl, 1 mM DTT, 0.01% IGEPAL; immunoblot with anti-GST and anti-MBP
T2 sequence: T1 sequence

[4] = target: T3, GST-ATG8A^LDS (YL50AA) (Arabidopsis thaliana) (UniProt Q8LEM4); experiment: as above
T3 sequence: T1 sequence with Y50A, L51A

[5] = target: T2, GST-ATG8A (Arabidopsis thaliana); experiment: pull-down; as a1, with the cAIM peptide added as competitor (200 μM final in Fig 3B)
[6] = target: T2, GST-ATG8A (Arabidopsis thaliana); experiment: microscopy-based on-bead protein-protein interaction assay; both purified

binding [1]: binds
Substance: AtC53 IDR (264-341) (from UniProt Q9FG23) (domain or fragment)

binding [2]: binds
Substance: AtC53 IDR^W276A (264-341) (from UniProt Q9FG23) (domain or fragment)

Substance: C53 homolog from Phytophthora sojae (Ps)
binding [3]: binds

binding [3]: binds
binding [4]: no binding
binding [5]: binds
Substance: MBP-AtC53 (from UniProt Q9FG23)

binding [6]: binds
Substance: mCh-AtC53 (from UniProt Q9FG23)

Positions count from the first letter of the chain named. No constants are given. Whether binding was seen depends on the method and setting. For some of these results: Binding can be weak; no strength is given. For some of these results: Tags and fused reporters may be left off the sequences shown. For some of these results: In cells and extracts the contact can be indirect. Each block holds one substance with its values, some of them ahead of it.
